Experimental findings from the supplement of paper PMC7024190 are described below.

Structures can show the parent of a compound that is named as a salt. Some of the results follow. Repeats in this data set agree poorly, so a single value says little.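 Human embryonic kidney cells were transiently transfected with a plasmid bearing a Renilla luciferase gene under the HSV-TK promoter. This first-round screen tests roughly ten thousand compounds for ones that increase reporter output.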

In the assay the test system is HEK 293FT. The experiment in a line: log relative Renilla luciferase luminescence (reporter expression vs reference, reference not stated) (log (base not stated)); higher = higher recombinant reporter expression. As to conditions: 10 µM; time after transfection 48 h.
Regarding `NS(=O)(=O)c1cc(C(=O)O)cc(N2CCCC2)c1Oc1ccccc1` [Piretanide], the log is -0.0137.

Regarding `CN(C)CCCN1c2ccccc2Sc2ccccc21` [Promazine hydrochloride], the log was 0.15.

Consider `Cc1cc(C(C)(C)C)c(O)c(C)c1CC1=NCCN1` [Oxymetazoline hydrochloride], for which the log is -0.219.

Regarding `Nc1c2c(nc3ccccc13)CCCC2` [Tacrine hydrochloride], the log was -0.187.

With `CCN(CC)C(=S)SSC(=S)N(CC)CC` [Disulfiram], the log is -0.0758.

On to `C/C(=C(\CCOP(=O)(O)O)SC(=O)c1ccccc1)N(C=O)Cc1cnc(C)nc1N` [Benfotiamine], for which the log stood at 0.198.

As to `O=C(CCCCCCC(=O)Nc1ccccc1)NO` [Vorinostat], the log was determined as 1.12.

As for `CC[C@H]1OC(=O)C[C@@H](O)[C@H](C)[C@@H](O[C@@H]2O[C@H](C)[C@@H](O[C@H]3C[C@@](C)(O)[C@@H](O)[C@H](C)O3)[C@H](N(C)C)[C@H]2O)[C@@H](CC=O)C[C@@H](C)C(=O)/C=C/C(C)=C/[C@@H]1CO[C@@H]1O[C@H](C)[C@@H](O)[C@@H](OC)[C@H]1OC` [Tylosin], the log is 0.0179.

`C[C@]12C[C@H](O)[C@H]3[C@@H](CCC4=CC(=O)CC[C@@]43C)[C@@H]1CC[C@@H]2C(=O)CO` [Corticosterone]: the log was -0.108.

On to `CC1(C)S[C@@H]2[C@H](NC(=O)[C@H](C(=O)O)c3ccsc3)C(=O)N2[C@H]1C(=O)O` [Ticarcillin sodium], for which the log is 0.16.

For `CN[C@@H]1[C@@H](O)[C@@H](O[C@@H]2[C@@H](O)[C@H](O[C@H]3OC(CN)=CC[C@H]3N)[C@@H](N)C[C@H]2N)OC[C@]1(C)O` [Sisomicin sulfate], the log is -0.0219.

Turning to `Cc1cc(NS(=O)(=O)c2ccc(N)cc2)no1` [Sulfamethoxazole], the log came out at 0.0269.

As for `O=C1CN(/N=C/c2ccc(-c3ccc([N+](=O)[O-])cc3)o2)C(=O)N1` [Dantrolene sodium salt], the log is 0.00284.

As to `CCOC(=O)n1ccn(C)c1=S` [Carbimazole], the log came to 0.0523.

For the compound `C[C@H](N)[C@H](O)c1cccc(O)c1` [Metaraminol bitartrate], the log was -0.0382.

For `CCN(CC)CCOC(=O)C(Cc1cccc2ccccc12)CC1CCCO1` (configuration not stated) [Nafronyl oxalate], the log is -0.0171.

On to `O=C1CN(/N=C/c2ccc([N+](=O)[O-])o2)C(=O)N1` [Nitrofurantoin], for which the log was -0.739.

Turning to `Cc1ccccc1OCC(O)CO` (configuration not stated) [Mephenesin], the log stood at 0.0655.

For `CC(C(=O)O)c1cccc(C(=O)c2ccccc2)c1` (configuration not stated) [Ketoprofen], the log is 0.0655.

Take `CCCC1O[C@@H]2C[C@H]3[C@@H]4CCC5=CC(=O)C=C[C@]5(C)[C@H]4[C@@H](O)C[C@]3(C)[C@]2(C(=O)CO)O1` (some centres not stated) [Budesonide]: the log is -0.0892.

Consider `Nc1nc2c(ncn2COCCO)c(=O)[nH]1` [Acyclovir], for which the log is -0.0566.

As for `CC(C)(C)NC(=O)[C@@H]1C[C@@H]2CCCC[C@@H]2CN1C[C@@H](O)[C@H](Cc1ccccc1)NC(=O)[C@H](CC(N)=O)NC(=O)c1ccc2ccccc2n1` [Saquinavir mesylate], the log is 0.0863.

In the case of `CCCCCN(CCCCC)C(=O)C(CCC(=O)O)NC(=O)c1ccc(Cl)c(Cl)c1` (configuration not stated) [Lorglumide sodium salt], the log stood at 0.0303.

Turning to `COc1c(N2C[C@@H]3CCCN[C@@H]3C2)c(F)cc2c(=O)c(C(=O)O)cn(C3CC3)c12` [Moxifloxacin], the log was found to be 0.0179.

As for `COc1ccc(C(=O)c2ccccc2)c(O)c1` [Oxybenzone], the log was found to be 0.00502.

In the case of `COc1ncnc(NS(=O)(=O)c2ccc(N)cc2)c1OC` [Sulfadoxine], the log was determined as 0.0781.

On to `CC(=O)OCC(=O)[C@@]1(O)[C@H](C)C[C@H]2[C@@H]3CCC4=CC(=O)C=C[C@]4(C)[C@@]3(F)[C@@H](O)C[C@@]21C` [Dexamethasone acetate], for which the log worked out at 0.0254.

Take `CCOC(=O)C1=C(C)NC(C)=C(C(=O)OCC)C1c1ccccc1/C=C/C(=O)OC(C)(C)C` [Lacidipine]: the log is -0.113.

As to `CCOc1cc(CC(=O)N[C@@H](CC(C)C)c2ccccc2N2CCCCC2)ccc1C(=O)O` [Repaglinide], the log turned out to be 0.0269.

For the compound `C#C[C@]1(O)CC[C@H]2[C@@H]3CCc4cc(O)ccc4[C@H]3CC[C@@]21C` [Ethinylestradiol], the log is 0.0984.

Consider `CCCCN(CCCC)CCC(O)c1cc2c(Cl)cc(Cl)cc2c2cc(C(F)(F)F)ccc12` (configuration not stated) [Halofantrine hydrochloride], for which the log was -0.556.

For `C[C@@H](O)[C@H]1C(=O)N2C(C(=O)O)=C(S[C@@H]3CN[C@H](C(=O)N(C)C)C3)[C@H](C)[C@H]12` [Meropenem], the log stood at 0.105.

Regarding `CC(=O)O[C@H]1C[C@@H]2CC[C@@H]3[C@H](CC[C@@]4(C)[C@H]3C[C@H]([N+]3(C)CCCCC3)[C@@H]4OC(C)=O)[C@@]2(C)C[C@@H]1N1CCCCC1` [Vecuronium bromide], the log is 0.00284.

On to `CC1(C)O[C@@H]2C[C@H]3[C@@H]4CCC5=CC(=O)CC[C@]5(C)[C@@]4(F)[C@@H](O)C[C@]3(C)[C@]2(C(=O)CCl)O1` [Halcinonide], for which the log was -0.0681.

For `C[C@]12C=CC(=O)C=C1CC[C@H]1[C@@H]3C[C@@H](O)[C@](O)(C(=O)CO)[C@@]3(C)C[C@H](O)[C@@]12F` [Triamcinolone], the log was determined as 0.0598.

In the case of `CCN(CC)C(=O)/C(C#N)=C/c1cc(O)c(O)c([N+](=O)[O-])c1` [Entacapone], the log is -0.628.

As for `OC(c1cc(C(F)(F)F)nc2c(C(F)(F)F)cccc12)C1CCCCN1` (configuration not stated) [Mefloquine hydrochloride], the log is 0.0346.

With `CNCCCC12CCC(c3ccccc31)c1ccccc12` [Maprotiline hydrochloride], the log worked out at 0.0669.

With `C[C@@H]1C[C@H]2[C@@H]3C[C@H](F)C4=CC(=O)C=C[C@]4(C)[C@@]3(Cl)[C@@H](O)C[C@]2(C)[C@H]1C(=O)COC(=O)C(C)(C)C` [Clocortolone pivalate], the log worked out at 0.00465.

For the compound `NS(=O)(=O)c1cc(Cl)c(Cl)c(S(N)(=O)=O)c1` [Dichlorphenamide], the log is -0.00649.

Take `CCN1CCCC(OC(=O)C(c2ccccc2)c2ccccc2)C1` (configuration not stated) [Piperidolate hydrochloride]: the log was -0.0311.

With `Cc1onc(-c2c(F)cccc2Cl)c1C(=O)N[C@@H]1C(=O)N2[C@@H]1SC(C)(C)[C@@H]2C(=O)O` [Flucloxacillin sodium], the log is -0.624.
